Paper PMC8397319 (2021)
Some peptides are written in HELM: one residue between dots, names in brackets for other building blocks, links after the first $.

Experiment: general procedure: Fmoc solid-phase peptide synthesis
Conditions: lipidation step

Substance | step yield
PEPTIDE1{[Dend2x12].G.D.G.R.E.G.A.S.E.H.E.Y.E.G.K.E.A.E}$$$$V2.0 | 50% yield
PEPTIDE1{[Dend4x7].G.D.G.R.E.G.A.S.E.H.E.Y.E.G.K.E.A.E}$$$$V2.0 | 40% yield
PEPTIDE1{[Dend4x7].G.D.G.E.E.G.A.S.R.G.E.Y.E.G.K.E.A.E}$$$$V2.0 | 51%
PEPTIDE1{[Dend4x7].G.D.G.E.E.G.A.S.R.H.E.Y.E.G.K.E.A.E}$$$$V2.0 | 26% yield
PEPTIDE1{[Dend2x12].G.D.G.E.E.G.A.S.R.H.E.Y.E.G.K.E.A.E}$$$$V2.0 | 48% yield
